The text below walks through data of paper PMC6112376, “Comprehensive Analyses and Prioritization of Tox21 10K Chemicals Affecting Mitochondrial Function by in-Depth Mechanistic Studies” (Environmental Health Perspectives, 2018).

In assay [1] the test system is HepG2 cells. In words: cells. Conditions: Homo sapiens, HepG2, read-out: MMP assays IC50 (µM), HepG2.
The test system of assay [2] is HepG2 cells. As to conditions: read-out: MMP assays IC50 (µM), qHTS-HepG2; cited from earlier work. (In general: Quantitative high-throughput screening tests each substance at several concentrations.)

Where two headings read alike, the source gives them in different places.

Broadly, the IC50 is the concentration that inhibits the measured activity by half. For the compound `O=C(CCCN1CCC2(CC1)C(=O)NCN2c1ccccc1)c1ccc(F)cc1` [Spiperone], the IC50 in assay [1] is 3.46 µM; in assay [2] it was 3.62 ± 0.24 µM.
